The list shows a part of the results.

Protein sequences, listed by entry. Tags and fused reporters are not part of them. Lines headed by an entry give the natural chain unless they say otherwise; changes in a name come on top.
UniProt Q96CS2: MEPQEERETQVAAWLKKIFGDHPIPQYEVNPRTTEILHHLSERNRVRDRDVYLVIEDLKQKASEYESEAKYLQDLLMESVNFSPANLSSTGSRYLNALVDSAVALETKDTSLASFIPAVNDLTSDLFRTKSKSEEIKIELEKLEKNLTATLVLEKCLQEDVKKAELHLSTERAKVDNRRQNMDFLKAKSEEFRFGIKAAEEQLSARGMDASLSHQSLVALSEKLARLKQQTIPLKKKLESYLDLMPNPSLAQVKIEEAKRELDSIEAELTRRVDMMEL
UniProt P36969, whole entry, looked up: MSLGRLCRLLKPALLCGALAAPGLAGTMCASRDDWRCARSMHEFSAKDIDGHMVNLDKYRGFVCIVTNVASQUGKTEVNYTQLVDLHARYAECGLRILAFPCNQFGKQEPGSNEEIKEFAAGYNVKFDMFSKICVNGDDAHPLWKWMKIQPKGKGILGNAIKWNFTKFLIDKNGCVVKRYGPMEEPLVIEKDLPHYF
UniProt P42357: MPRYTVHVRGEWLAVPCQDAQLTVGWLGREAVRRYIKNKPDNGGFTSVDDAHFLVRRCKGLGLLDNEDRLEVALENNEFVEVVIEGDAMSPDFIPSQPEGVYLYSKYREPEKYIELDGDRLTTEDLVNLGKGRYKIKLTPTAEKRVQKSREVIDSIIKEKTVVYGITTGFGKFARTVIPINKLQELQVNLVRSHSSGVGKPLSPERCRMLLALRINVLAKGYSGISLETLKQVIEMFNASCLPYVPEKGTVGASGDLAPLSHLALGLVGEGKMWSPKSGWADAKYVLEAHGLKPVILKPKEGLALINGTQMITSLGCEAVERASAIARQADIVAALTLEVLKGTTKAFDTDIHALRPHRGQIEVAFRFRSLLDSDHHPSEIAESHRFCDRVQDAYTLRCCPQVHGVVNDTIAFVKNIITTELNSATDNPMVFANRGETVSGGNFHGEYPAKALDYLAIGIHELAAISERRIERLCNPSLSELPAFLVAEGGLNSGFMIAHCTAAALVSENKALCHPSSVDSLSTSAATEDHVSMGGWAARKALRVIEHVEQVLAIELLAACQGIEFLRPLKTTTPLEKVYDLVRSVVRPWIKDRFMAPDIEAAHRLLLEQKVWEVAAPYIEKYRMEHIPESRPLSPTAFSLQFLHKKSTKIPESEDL
UniProt P49590: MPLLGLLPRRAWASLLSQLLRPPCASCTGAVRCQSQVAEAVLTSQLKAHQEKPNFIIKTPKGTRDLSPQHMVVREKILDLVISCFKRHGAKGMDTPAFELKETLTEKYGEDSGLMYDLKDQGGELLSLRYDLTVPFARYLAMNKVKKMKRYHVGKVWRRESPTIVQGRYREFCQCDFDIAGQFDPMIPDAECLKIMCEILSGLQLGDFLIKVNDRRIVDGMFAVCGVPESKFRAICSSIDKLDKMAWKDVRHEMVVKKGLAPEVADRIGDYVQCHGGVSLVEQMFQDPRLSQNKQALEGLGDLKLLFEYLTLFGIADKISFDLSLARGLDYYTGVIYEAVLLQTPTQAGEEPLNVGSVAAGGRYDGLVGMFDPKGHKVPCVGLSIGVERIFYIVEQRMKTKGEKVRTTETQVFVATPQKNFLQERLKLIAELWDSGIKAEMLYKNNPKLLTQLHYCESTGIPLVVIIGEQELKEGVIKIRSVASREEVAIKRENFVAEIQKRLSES
UniProt P55084: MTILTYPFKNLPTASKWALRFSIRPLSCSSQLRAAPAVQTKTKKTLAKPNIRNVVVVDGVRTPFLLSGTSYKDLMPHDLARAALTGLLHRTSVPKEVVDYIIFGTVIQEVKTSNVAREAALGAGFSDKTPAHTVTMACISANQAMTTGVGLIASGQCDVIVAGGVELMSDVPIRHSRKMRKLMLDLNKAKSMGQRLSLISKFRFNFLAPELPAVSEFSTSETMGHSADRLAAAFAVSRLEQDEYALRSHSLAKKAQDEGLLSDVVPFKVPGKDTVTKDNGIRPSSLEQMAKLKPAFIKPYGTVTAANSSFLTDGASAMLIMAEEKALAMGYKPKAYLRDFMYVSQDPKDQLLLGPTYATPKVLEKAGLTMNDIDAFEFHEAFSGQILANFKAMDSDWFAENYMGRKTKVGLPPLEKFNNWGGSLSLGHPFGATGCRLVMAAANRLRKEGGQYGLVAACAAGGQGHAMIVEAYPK
UniProt Q8WUA4: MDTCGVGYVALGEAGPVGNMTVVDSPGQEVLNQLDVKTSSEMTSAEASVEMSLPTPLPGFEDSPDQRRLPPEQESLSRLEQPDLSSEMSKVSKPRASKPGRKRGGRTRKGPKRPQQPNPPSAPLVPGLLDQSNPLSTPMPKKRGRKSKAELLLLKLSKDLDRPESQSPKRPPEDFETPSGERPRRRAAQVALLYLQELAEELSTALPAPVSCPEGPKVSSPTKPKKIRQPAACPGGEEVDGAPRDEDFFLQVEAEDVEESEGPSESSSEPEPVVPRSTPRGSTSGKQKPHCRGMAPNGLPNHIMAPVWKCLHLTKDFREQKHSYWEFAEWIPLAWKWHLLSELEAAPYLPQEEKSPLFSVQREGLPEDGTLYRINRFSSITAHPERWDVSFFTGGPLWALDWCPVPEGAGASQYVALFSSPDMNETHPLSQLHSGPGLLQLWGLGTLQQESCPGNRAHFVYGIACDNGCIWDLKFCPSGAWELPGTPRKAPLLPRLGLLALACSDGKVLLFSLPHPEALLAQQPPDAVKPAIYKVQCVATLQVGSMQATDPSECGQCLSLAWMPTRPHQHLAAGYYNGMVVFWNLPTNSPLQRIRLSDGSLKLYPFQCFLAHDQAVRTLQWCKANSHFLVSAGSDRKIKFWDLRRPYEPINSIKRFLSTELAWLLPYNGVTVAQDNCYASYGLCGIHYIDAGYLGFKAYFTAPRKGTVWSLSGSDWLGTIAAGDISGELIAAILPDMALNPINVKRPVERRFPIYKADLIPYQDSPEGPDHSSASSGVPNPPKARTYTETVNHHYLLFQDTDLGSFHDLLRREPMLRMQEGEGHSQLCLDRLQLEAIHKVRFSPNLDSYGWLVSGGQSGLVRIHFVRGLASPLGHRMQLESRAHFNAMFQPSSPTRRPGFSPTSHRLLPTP
UniProt P28161: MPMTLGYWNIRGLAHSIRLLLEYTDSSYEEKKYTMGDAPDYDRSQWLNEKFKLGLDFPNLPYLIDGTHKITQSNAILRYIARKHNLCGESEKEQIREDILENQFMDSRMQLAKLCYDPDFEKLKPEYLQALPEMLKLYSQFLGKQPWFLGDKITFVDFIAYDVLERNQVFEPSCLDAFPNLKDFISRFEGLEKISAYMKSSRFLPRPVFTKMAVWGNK
UniProt Q9Y4H4: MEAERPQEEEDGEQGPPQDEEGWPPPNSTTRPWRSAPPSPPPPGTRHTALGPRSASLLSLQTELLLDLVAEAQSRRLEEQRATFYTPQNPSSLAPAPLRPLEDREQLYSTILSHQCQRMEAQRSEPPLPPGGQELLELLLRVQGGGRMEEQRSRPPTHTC
UniProt Q9Y5Q9: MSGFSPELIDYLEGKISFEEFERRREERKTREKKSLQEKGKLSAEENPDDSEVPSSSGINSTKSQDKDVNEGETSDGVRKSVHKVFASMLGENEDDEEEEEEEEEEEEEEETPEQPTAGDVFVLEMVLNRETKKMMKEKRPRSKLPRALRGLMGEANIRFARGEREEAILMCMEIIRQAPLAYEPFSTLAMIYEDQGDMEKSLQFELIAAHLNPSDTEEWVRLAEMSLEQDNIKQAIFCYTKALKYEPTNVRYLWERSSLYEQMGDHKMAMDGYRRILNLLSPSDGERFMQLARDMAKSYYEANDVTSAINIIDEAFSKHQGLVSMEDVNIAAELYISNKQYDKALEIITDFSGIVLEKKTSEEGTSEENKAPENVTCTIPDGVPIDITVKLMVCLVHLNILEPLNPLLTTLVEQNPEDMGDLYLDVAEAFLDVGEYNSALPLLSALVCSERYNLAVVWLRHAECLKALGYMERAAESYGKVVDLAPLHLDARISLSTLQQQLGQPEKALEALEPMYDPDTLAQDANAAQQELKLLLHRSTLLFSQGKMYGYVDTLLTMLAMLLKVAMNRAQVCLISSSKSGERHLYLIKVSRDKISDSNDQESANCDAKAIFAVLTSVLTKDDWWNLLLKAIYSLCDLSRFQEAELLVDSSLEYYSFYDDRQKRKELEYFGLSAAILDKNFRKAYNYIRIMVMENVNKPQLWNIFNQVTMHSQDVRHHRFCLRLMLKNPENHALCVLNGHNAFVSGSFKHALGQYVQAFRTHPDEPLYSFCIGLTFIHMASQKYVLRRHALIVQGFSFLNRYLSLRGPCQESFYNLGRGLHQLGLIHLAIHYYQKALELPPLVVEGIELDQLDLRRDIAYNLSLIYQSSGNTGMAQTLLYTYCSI
UniProt P40939: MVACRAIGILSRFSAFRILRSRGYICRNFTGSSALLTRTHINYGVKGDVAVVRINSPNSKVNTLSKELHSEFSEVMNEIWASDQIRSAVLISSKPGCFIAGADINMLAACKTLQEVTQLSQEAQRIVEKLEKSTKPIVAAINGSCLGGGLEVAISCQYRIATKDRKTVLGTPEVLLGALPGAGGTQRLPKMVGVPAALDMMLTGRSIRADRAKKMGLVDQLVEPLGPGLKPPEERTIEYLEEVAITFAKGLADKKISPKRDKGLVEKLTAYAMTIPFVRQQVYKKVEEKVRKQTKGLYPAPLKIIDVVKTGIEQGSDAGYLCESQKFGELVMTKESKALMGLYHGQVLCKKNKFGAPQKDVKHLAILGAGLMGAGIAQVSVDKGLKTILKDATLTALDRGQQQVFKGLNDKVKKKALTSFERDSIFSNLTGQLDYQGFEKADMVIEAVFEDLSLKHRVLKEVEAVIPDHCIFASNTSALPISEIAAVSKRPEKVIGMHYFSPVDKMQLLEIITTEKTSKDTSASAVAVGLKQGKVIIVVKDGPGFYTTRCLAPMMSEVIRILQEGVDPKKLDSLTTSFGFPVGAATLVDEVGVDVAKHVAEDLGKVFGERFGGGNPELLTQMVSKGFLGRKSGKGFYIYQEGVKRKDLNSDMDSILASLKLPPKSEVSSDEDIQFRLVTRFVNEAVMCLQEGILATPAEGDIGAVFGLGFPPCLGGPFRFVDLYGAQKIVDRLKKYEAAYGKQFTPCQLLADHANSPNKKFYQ
UniProt Q96NT3: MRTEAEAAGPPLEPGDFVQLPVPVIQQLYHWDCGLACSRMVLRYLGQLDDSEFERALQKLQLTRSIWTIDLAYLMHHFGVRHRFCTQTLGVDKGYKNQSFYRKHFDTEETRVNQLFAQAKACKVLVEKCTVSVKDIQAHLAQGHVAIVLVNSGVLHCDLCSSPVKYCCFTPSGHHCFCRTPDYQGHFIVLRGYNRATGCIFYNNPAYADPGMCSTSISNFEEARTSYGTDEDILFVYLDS
UniProt Q6Y1H2: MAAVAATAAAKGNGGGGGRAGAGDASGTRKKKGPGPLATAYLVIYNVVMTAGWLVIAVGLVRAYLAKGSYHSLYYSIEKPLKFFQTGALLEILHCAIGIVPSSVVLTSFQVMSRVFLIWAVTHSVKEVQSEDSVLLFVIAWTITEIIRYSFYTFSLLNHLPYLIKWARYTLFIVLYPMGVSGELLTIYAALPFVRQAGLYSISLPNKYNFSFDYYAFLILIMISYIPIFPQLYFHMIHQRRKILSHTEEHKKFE
UniProt Q13888: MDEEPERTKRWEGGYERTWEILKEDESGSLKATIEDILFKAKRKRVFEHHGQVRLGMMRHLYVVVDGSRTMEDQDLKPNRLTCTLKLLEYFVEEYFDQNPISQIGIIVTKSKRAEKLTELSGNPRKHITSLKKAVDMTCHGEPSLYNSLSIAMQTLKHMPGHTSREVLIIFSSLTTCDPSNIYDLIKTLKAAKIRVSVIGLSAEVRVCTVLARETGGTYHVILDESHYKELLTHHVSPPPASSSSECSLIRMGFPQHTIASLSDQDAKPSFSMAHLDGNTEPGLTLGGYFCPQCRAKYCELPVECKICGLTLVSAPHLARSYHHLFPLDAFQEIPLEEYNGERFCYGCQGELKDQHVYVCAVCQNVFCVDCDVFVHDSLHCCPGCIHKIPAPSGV
UniProt P28799: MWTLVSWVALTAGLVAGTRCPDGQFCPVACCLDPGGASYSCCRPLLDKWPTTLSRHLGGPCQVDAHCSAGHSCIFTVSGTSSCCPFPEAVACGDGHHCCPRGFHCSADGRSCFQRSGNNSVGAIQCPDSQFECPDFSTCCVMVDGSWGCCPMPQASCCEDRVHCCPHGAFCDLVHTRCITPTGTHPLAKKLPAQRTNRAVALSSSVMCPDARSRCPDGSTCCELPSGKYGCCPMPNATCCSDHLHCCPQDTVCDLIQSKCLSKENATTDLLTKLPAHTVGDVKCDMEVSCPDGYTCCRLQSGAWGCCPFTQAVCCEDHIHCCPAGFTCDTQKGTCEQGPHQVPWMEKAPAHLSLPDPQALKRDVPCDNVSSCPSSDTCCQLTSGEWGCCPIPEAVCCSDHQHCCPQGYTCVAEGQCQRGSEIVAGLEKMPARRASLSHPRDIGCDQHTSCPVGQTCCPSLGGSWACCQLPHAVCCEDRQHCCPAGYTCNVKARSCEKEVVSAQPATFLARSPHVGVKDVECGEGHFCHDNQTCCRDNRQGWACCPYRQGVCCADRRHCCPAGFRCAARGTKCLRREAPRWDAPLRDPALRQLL

Compound in this experiment: O=C(CCCCCCC(=O)Nc1ccccc1)NO [vorinostat]
The experiment is described as follows: log2 fold change, soluble protein after heating vs DMSO (PISA); higher = thermal stabilisation; K562 lysate, 10 uM; active = over 0.2 and 3.5 SD of the protein, either way, in both replicates (recomputed). In outline:
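Pellets of K562 cells were dounce-homogenised in PBS pH 7.4 with 1 mM MgCl2, and the crude extract was held at 1 mg/mL protein for a 30 min treatment with 10 μM compound. Aliquots were heated for 3 min over 48°C-58°C and pooled before NP-40 was added to 0.5% at 4°C. The supernatant from 21,000xg for 90 min was quantified by TMTpro 16plex LC-MS/MS with channel sums equalised. Values are reported from duplicates as log-two fold change in thermal stability relative to solvent controls.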
On to HAUS1 (UniProt Q96CS2), for which the log2 fold change was inactive: -0.042.
As to GRAMD1A (UniProt Q96CP6), the log2 fold change is inactive: -0.133.
Next, GSTCD (UniProt Q8NEC7): active: -0.356.
Consider H4C1 (UniProt P62805), for which the log2 fold change was inactive: 0.09.
Next, GPX4 (UniProt P36969): active: -0.306.
Consider HBG2 (UniProt P69892), for which the log2 fold change is inactive: 0.155.
The same measure for GSDME (UniProt O60443): inactive: -0.2; for H1-2 (UniProt P16403): inactive: 0.111; for HAL (UniProt P42357): inactive: 0.26.
On to HDAC1 (UniProt Q13547), for which the log2 fold change is active: 0.644.
Next, HARS2 (UniProt P49590): inactive: 0.009; HADHB (UniProt P55084): inactive: -0.199.
As to HDAC8 (UniProt Q9BY41), the log2 fold change was inactive: -0.247.
Take H3-3A (UniProt P84243): the log2 fold change is inactive: -0.077.
The same measure for GTF3C2 (UniProt Q8WUA4): inactive: -0.169; for GSTM2 (UniProt P28161): active: 0.323.
Next, GPSM3 (UniProt Q9Y4H4): inactive: 0.096.
Next, HAGH isoform 2 (UniProt Q16775): inactive: 0.068.
As to GTF3C3 (UniProt Q9Y5Q9), the log2 fold change is active: -0.291.
The same measure for HADHA (UniProt P40939): inactive: -0.159.
The same measure for GUCD1 isoform 3 (UniProt Q96NT3): inactive: 0.442; for HACD2 (UniProt Q6Y1H2): inactive: 0.027; for GTF2H2 (UniProt Q13888): inactive: -0.05.
The same measure for GRN (UniProt P28799): inactive: 0.073.

Source of the values: the supplement of paper PMC10849652.
